Test results reported in PubChem BioAssay AID2685 (National Center for Advancing Translational Sciences (NCATS), 2010).
Hit rate of the full screen: of about 320,000 compounds, about 2,100 (0.66%) were called active. The inconclusive results got no clear call from the source; some entries with a clear call stand among them for comparison. Calls come from the whole dose curve; as a rule, active = well fitted inhibition curve with a large enough effect in the signal ratio, with a control signal flat (not every such curve was filed as active); inconclusive = small, poorly fitted or top-dose-only effect, or effect the other way, or a change in a side signal; inactive = flat fitted curve, though single readings scatter; the % refers to the signal ratio. Potencies of inconclusive entries are doubtful fits and often do not repeat.

assay: qHTS Assay for Lipid Storage Modulators in Drosophila S3 Cells; conditions: BODIPY lipid droplet fluorescence, 18-24 h, cells fed with added oleic acid; lipid storage change, negative = inhibition: at 46.1 µM (top of the series) unless noted
In short: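 Laser-scanning cytometry quantifies lipid droplet accumulation (500–530 nm total intensity; droplet/cell object ratio) in oleic acid-fed (400 uM added) Drosophila S3 cells treated with a concentration series. 20 uM Triacsin C defined 100% inhibition.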
% is set by controls: 0 for no effect and ±100 for the full control effect; potency is the fitted concentration of half-maximal effect.

SMILES | lipid storage change, negative = inhibition | Potency
O=C1CCCC2=C1C(c1cccc(O)c1)c1c(ccc3ncccc13)N2 (stereo not given) | inconclusive: -18.1% | –
CN(c1ccccc1)S(=O)(=O)c1cccc(NC(=O)c2cccc(C#N)c2)c1 | inconclusive: -74.8% | –
COc1ccc(N2CCN(S(=O)(=O)CCNC(=O)c3cccs3)CC2)cc1 | inconclusive: 20.1% | –
CCc1ccc(/C=C2\Oc3ccc(C(=O)OC)cc3C2=O)cc1 | inconclusive: -1.76% | –
O=C(NC(=S)N1CCCCC1CO)c1cc(Br)ccc1Cl (stereo not given) | inconclusive: 195% | –
O=C(O)C1CSC(c2ccco2)N1 (stereo not given) | inconclusive: -0.258% | –
CCOC(=O)Cc1csc(NC(=O)c2ccc(S(=O)(=O)N3CCOCC3)cc2)n1 | inconclusive: -2.38% | –
CCN(c1cccc(C)c1)S(=O)(=O)c1cc(CN2C(=O)c3cccnc3C2=O)ccc1OC | – | active: 8.2 µM
O=C(CCC1CCN(Cc2ccccc2O)CC1)NC1CC1 | – | inconclusive: 0.92 µM [falling, single point]
Cc1ccc2[nH]c(=O)c(CN(Cc3ccc4c(c3)OCO4)Cc3nnnn3C3CCCC3)cc2c1 | inconclusive: 11.6% | –
O=C(NC(=S)NC(c1ccccc1)c1ccncc1)c1ccccc1 (stereo not given) | inconclusive: -6.65% | –
CCOc1c(Br)cc(C(N)=O)cc1OC | inconclusive: 23.4% | –
COc1ccc(N2CCN(C(=O)C(=O)c3c[nH]c4ccccc34)CC2)cc1 | – | inconclusive: 0.0731 µM [activator, full curve, poor fit]
COc1ccc(C(=O)CSc2nnc(CNC(=O)c3ccccc3F)n2C)cc1OC | inactive: -9.91% | –
CN1C(=O)C(C)(C)c2cc(S(=O)(=O)N3CCCC3C(=O)NCc3ccccc3Cl)ccc21 (stereo not given) | – | inconclusive: 25.9 µM [falling, partial curve, poor fit]
Cc1ccc(C(=O)CSc2nnc(C3CC3)n2C2CC2)s1 | inconclusive: 4.56% | –
COc1ccc(CC(=O)NCc2nnc(SCC(=O)Nc3ncc(C)s3)n2C)cc1 | inconclusive: 0.0496% | –
Cc1ccccc1NC(=O)CSc1nc2ccccc2c2nc(CCn3cncc3C)nn12 | inconclusive: 7.38% | –
CS(=O)(=O)N1CCc2cc(C(=O)Nc3cccc([N+](=O)[O-])c3)ccc21 | – | inconclusive: 29.1 µM [activator, single point]
Cc1nc(C)c(C(=O)OCC(=O)NCc2ccccc2)s1 | – | active: 1.16 µM
CCc1nnc(NC(=O)C2c3ccccc3Oc3ccccc32)s1 | inconclusive: -5.75% | –
O=C(OC(C(=O)NCc1cccs1)c1ccc(F)cc1)c1ccco1 (stereo not given) | – | inconclusive: 2.91 µM [activator, full curve]
COc1ccc(NC(=O)Cc2cccc(F)c2)cc1S(=O)(=O)Nc1ccccc1Cl | inconclusive: 14.8% | –
COc1ccc(CN2C(=O)CN(C3CCCCCC3)C(=O)C2c2ccc(F)cc2)cc1 (stereo not given) | inconclusive: 7.45% | –
COc1ccc(-c2csc(NC(=O)C3=COCCO3)n2)c(OC)c1 | inconclusive: 19.5% | –

A second format for some results above:
SMILES	lipid storage change, negative = inhibition	Potency
CN1C(=O)C(C)(C)c2cc(S(=O)(=O)N3CCCC3C(=O)NCc3ccccc3Cl)ccc21 (stereo not given)	–	inconclusive: 25.9 µM [falling, partial curve, poor fit]
Cc1ccc(C(=O)CSc2nnc(C3CC3)n2C2CC2)s1	inconclusive: 4.56%	–

(listing goes on)

SMILES | lipid storage change, negative = inhibition | Potency
COC(=O)[C@@H]1CC[C@H](C)[C@@H](c2ccc(C)cc2)N1C(=O)c1ccc(/C=N/O[C@H](C)c2cn([C@@H]3COC[C@H]3O)nn2)cc1 | inconclusive: 8.02% | –
CC1CCN(C(=O)CN2C(=O)NC3(CCCc4ccccc43)C2=O)CC1 (stereo not given) | – | inconclusive: 0.731 µM [rising, single point]
Cc1nc2nc(-c3ccc(Cl)cc3)[nH]n2c(=O)c1Cc1ccccc1 | inconclusive: -6.49% | –
COc1ccc(C(=O)COC(=O)COc2ccc(C)c(C)c2)cc1 | inconclusive: 4.14% | –
OC(COCc1cccs1)CN1CCN(c2cccc(C(F)(F)F)c2)CC1 (stereo not given) | inconclusive: -6.9% | –
CCOC(=O)C(NC(C)=O)(N1CCOCC1)C(F)(F)F (stereo not given) | inconclusive: -18.7% | –
O=C(Cn1ccc([N+](=O)[O-])n1)Nc1nccs1 | inconclusive: 213% | –
COC(=O)c1ccc(NC(=O)c2ccc(F)cc2)o1 | inconclusive: 12.6% | –
CN(CC(=O)NCc1ccccn1)S(=O)(=O)c1ccc(F)cc1 | inconclusive: 21.4% | –
CCCCn1c(N)c(N(CC(C)C)C(=O)C2CSC3(C)CCC(=O)N23)c(=O)[nH]c1=O (stereo not given) | inconclusive | –
O=c1c2cc(Cl)ccc2[nH]c(=S)n1Cc1cccs1 | inconclusive: 18.5% | –
O=C(CSc1nnc(NC(=O)c2cccc(F)c2)s1)NC1CC1 | – | inconclusive: 29.1 µM [activator, single point]
O=C(Cc1ccc(Cl)cc1)Nc1cccc(S(=O)(=O)N2CCCCC2)c1 | inconclusive: -55.8% | –
Cc1ccc(C(=O)N2C(=S)C(c3ccc(F)cc3)=NC23CCN(C)CC3)cc1 | – | inconclusive: 29.1 µM [cytotoxic, single point]
O=C(NCC1CCCO1)c1nnc(Cc2ccc(F)cc2)o1 (stereo not given) | inconclusive: 4.38% | –
Cc1ccc(N=c2c([N+](=O)[O-])nn(-c3ccccc3)n2O)c(C)c1 | – | inconclusive: 0.146 µM [activator, full curve, poor fit]
Cc1cc(C(C)(C)C)ccc1OCC(=O)N/N=C\c1c(C)n(C)n(-c2ccccc2)c1=O | inconclusive: -7.52% | –
Cc1cc(C)c2cc(CN(CCCO)S(=O)(=O)c3ccccc3F)c(=O)[nH]c2c1 | inconclusive: 1.38% | –
C=CCn1c(SCC(=O)Nc2ccc(C(=O)OC(C)C)cc2)nnc1-c1cccs1 | – | inconclusive: 1.84 µM [activator, single point]
CCOC(=O)c1csc(NC(=O)CSc2nnnn2-c2cccc(OC)c2)n1 | inconclusive: 0.779% | –
CC(=O)Cc1ccccc1OC(=O)c1ccco1 | – | inconclusive: 3.26 µM [falling, full curve]
COc1ccc(CN2C(=O)CNC2=S)cc1 | inconclusive: 16.6% | –
CCOCCOc1cccc(C(=O)NC(c2ccccc2)c2ccccc2)c1 | – | inconclusive: 29.1 µM [falling, single point]
Nc1nnc(CCC2CCCCC2)s1 | – | inconclusive: 3.66 µM [falling, full curve]
O=S(=O)(Nc1ccon1)c1ccc(F)c(F)c1 | – | inconclusive: 6.51 µM [falling, single point]
